Experimental data published in the supplement of paper PMC3334620.
Whole data set: some 33,000 sequences, median “E-score (-0.5 to 0.5)” near -0.015, cut for the highest 2% near 0.3. The list shows a part of the results.

target: T1, Abf1 (UniProt P14164); test: PBM E-score (8-mer binding enrichment) (E-score (-0.5 to 0.5)); higher = stronger / more preferred TF binding; conditions: protein concentration: 200 nM; construct: GST-full length
T1 sequence: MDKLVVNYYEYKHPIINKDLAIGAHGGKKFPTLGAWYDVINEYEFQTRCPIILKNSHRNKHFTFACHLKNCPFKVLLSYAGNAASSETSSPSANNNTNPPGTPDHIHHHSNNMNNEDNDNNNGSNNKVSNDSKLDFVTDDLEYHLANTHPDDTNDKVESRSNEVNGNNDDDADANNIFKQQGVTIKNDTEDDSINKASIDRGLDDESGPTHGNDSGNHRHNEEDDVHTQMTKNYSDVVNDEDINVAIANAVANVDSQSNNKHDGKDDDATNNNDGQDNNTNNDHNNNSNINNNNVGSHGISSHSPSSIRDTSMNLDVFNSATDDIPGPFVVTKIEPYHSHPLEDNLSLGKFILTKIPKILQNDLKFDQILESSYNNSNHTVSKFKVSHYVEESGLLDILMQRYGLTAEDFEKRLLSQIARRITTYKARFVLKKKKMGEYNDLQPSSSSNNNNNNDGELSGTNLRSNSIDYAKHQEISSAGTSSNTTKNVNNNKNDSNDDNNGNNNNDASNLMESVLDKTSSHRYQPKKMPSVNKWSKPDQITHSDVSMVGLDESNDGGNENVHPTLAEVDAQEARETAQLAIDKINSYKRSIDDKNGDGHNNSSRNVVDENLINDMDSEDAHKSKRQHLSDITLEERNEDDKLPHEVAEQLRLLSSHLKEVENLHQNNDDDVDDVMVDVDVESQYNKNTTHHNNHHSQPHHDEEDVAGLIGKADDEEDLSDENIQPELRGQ
Procedure, shortened: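 For each ungapped eight-base word taken together with its reverse complement, the Universal PBM Analysis Suite assigned an E-score. Binding data came from GST-tagged yeast transcription factors, applied at about 100-200 nM, on universal all-10-mer Agilent arrays made double-stranded by primer extension. Fluorescent anti-GST marked bound protein, and scans were normalised with masliner.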

Sequence	PBM E-score
CTTAACGA	0.188
CGTGTTGA	0.162
CGTTGCTA	0.0226
AGTTCGTG	0.326
ATTTCATA	0.0854
ACTACATG	0.0944
CGCGGCAA	0.0562
CCTCGTAG	0.17
GTACTTGA	0.125
ATCTACGG	0.344
CGGATACG	0.172
CAGTCGGC	-0.269
ACAAAGAG	0.00144
GTCAGGCA	0.12
AAAAAATC	-0.0225
CAGTGATG	0.255
ACCTGCCG	-0.24
ACCTTCTC	-0.00773
ACTTGGAC	-0.0592
GGGGGGAC	-0.294
CCGCTGAG	-0.0604
AGCGGCTA	-0.136
ATTGCGCC	-0.169
AGACATAG	0.0414
TCAATGAA	0.0569

Sequence	PBM E-score
GGATCCCA	-0.0451
GCACCTAC	-0.2
TAGACCAA	0.0272
CAGTCAAG	-0.109
AGAACACA	-0.215
AGGTTAGC	-0.196
CTATGTGA	0.0947
CGAACATA	0.0217
ATGACCCC	-0.103
AGAAATGA	0.253
TACCAGAA	-0.0112
CGTTCGAC	0.122
ACCGACTC	-0.17
CCAGTGGC	-0.222
TAAAATGA	0.272
AAGTAGAG	-0.128
GGGCTGAC	-0.0684
CTATTACC	-0.106
ACGGGTAC	0.0111
ACACATCT	-0.0819
CCCACTAA	-0.0653
AATAAGTG	0.0946
AGCTTCTA	-0.182
AAGGTCGG	-0.323
CTTTAGGC	-0.143

Sequence	PBM E-score
ACGTACAA	0.218
CCCTAGCC	-0.163
CAGAGTCC	-0.029
CCCAGCTC	-0.179
GAATCCTC	-0.219
CGTGGCAC	-0.0836
CTCAACGA	0.102
ATGACGCA	0.137
ATGGGAGG	-0.21
GCCCGGCA	-0.208
AAGGTTAC	0.00236
AAATGGCT	0.0556
ATTCAATG	0.0703
TACAGCGA	-0.0228
CGGGTGTA	-0.102
GCTTTCCC	-0.168
CTTGTACC	-0.0544
AGCTCGTA	0.149
TGCATGCA	-0.109
ATCGTCTC	0.25
ACTACTAC	-0.0341
ACAGTTCC	-0.126
AGTATAGA	0.0794
AATGTACG	0.192
AAGACAAT	0.138

Shown field by field: part of the list above.
ATGGGAGG
  PBM E-score: -0.21
GCCCGGCA
  PBM E-score: -0.208

The listing continues.

Sequence	PBM E-score
CCTTCTAC	-0.155
GTGCTTCA	-0.0747
CGCGGCCG	-0.0338
CTTCTTGC	0.0382
ACGCCCCA	0.0166
CGGCGGAC	-0.0162
CGCCAGCC	-0.207
ACACTGGC	-0.166
GGGAAGCA	-0.179
TACAGAGA	-0.0628
CGTTCCAG	-0.0488
AATGCCCA	-0.0751
ACTTGGGG	-0.194
CCAGAGAA	0.053
GCAACTGC	-0.0516
ACAATAAG	0.00628
CAAAAAAC	0.0887
GACAAACC	-0.0479
ATCTCGGC	-0.123
GCCCATTA	-0.0331
GCTGTTTA	-0.0984
TGCCGGAA	0.0414
AAATTCCG	0.132
GATCCACA	0.032
AGCCGGTC	-0.144

Sequence	PBM E-score
CAGAATGC	-0.0625
CCTCTCCA	-0.358
TCACACCA	0.112
GACGACTA	0.183
ACACTATC	0.127
ACGAGTCA	0.0417
AAATGTAC	0.188
CATAATTC	-0.0101
CGTCTTCA	0.174
ACGGGTGA	0.32
GCCCACGC	-0.0827
CGAAGAAA	0.0654
TAAACTAA	0.151
AGTGATCC	0.189
CAATTTAC	-0.0222
GTCTTAAC	0.0868
CCCCAGTA	-0.0493
CCGGGAGA	-0.141
CCAAGAGC	-0.155
ATAGGCTC	-0.0801
CCGAAACG	0.0848
CGTAGTGC	-0.0507
CCGAGCAA	-0.168
CAGATAGA	-0.192
GGAAGCCA	-0.293

Sequence	PBM E-score
CCGTGGTC	-0.0733
CCGCACCA	-0.101
GATATGCC	0.202
CGAGAACA	-0.0208
TATAAGAA	0.143
CGGGTGAG	-0.286
AATTTGTC	0.221
ATGCTCTA	0.036
TCAAAACA	0.0732
CTTTTCGC	-0.0129
TCCGACAA	-0.0321
CCTGCCAC	-0.188
ACTAGATG	0.145
CGGTGTCA	0.132
CTTATAAG	-0.0748
GAATGAAA	-0.0868
ACCCGCTG	-0.0686
CCCCGGCG	-0.127
AACGGGTG	0.27
CTCCGACC	-0.312
AACACTCC	-0.121
AAAGCTCC	-0.0576
ATCCGCAA	0.0167
CTCTTGCC	-0.0459
AACGTAGA	0.0866

Rewritten bar-delimited: entries from further up.
Sequence | PBM E-score
CCCTAGCC | -0.163
CAGAGTCC | -0.029
CCCAGCTC | -0.179
GAATCCTC | -0.219
CGTGGCAC | -0.0836
CTCAACGA | 0.102

(further entries)

Sequence	PBM E-score
AGCTAAGC	-0.215
CAACTCCG	-0.208
ATATTTCG	0.141
AAGTATGC	0.0968
GCTTACCC	-0.233
TCACTCAA	0.195
AAACGGGC	0.151
ATGCCGTC	-0.00725
GCTTAATA	0.0372
CATTCGAA	-0.0243
ATGGTCTG	-0.0499
GATGTAAC	0.0725
GATGGGAC	-0.154
ATTCGTTG	0.0365
CCTGTCCG	-0.0665
CGGGAGCC	-0.133
GTGTAGCA	-0.147
ACCCAAAG	-0.252
GGAAGGCC	-0.212
GTGCAAAC	0.0304
CCTGCTTC	-0.177
CATATGCA	-0.139
